Experimental data published in PMC9151573.
No constants are given. Whether binding was seen depends on the method and setting. In cells and extracts the contact can be indirect. Some results given as binding are weak or reduced against the parent protein; the word gives no strength.

Molecular target: HA-p53 (human) (UniProt P04637)
Assay: co-IP; p53HA overexpressed in HepG2 p53KO cells, 24 h growth or starvation medium, precipitated with anti-HA beads, SORBS1 detected by Western blot

B1: Sorbin and SH3 domain-containing protein 1 (SORBS1) (protein, UniProt Q9BX66 1-1292)
chain: MSSECDGGSKAVMNGLAPGSNGQDKATADPLRARSISAVKIIPVKTVKNASGLVLPTDMDLTKICTGKGAVTLRASSSYRETPSSSPASPQETRQHESKPGLEPEPSSADEWRLSSSADANGNAQPSSLAAKGYRSVHPNLPSDKSQDATSSSAAQPEVIVVPLYLVNTDRGQEGTARPPTPLGPLGCVPTIPATASAASPLTFPTLDDFIPPHLQRWPHHSQPARASGSFAPISQTPPSFSPPPPLVPPAPEDLRRVSEPDLTGAVSSTDSSPLLNEVSSSLIGTDSQAFPSVSKPSSAYPSTTIVNPTIVLLQHNREQQKRLSSLSDPVSERRVGEQDSAPTQEKPTSPGKAIEKRAKDDSRRVVKSTQDLSDVSMDEVGIPLRNTERSKDWYKTMFKQIHKLNRDTPEENPYFPTYKFPELPEIQQTSEEDNPYTPTYQFPASTPSPKSEDDDSDLYSPRYSFSEDTKSPLSVPRSKSEMSYIDGEKVVKRSATLPLPARSSSLKSSSERNDWEPPDKKVDTRKYRAEPKSIYEYQPGKSSVLTNEKMSRDISPEEIDLKNEPWYKFFSELEFGKPPPKKIWDYTPGDCSILPREDRKTNLDKDLSLCQTELEADLEKMETLNKAPSANVPQSSAISPTPEISSETPGYIYSSNFHAVKRESDGAPGDLTSLENERQIYKSVLEGGDIPLQGLSGLKRPSSSASTKDSESPRHFIPADYLESTEEFIRRRHDDKEKLLADQRRLKREQEEADIAARRHTGVIPTHHQFITNERFGDLLNIDDTAKRKSGSEMRPARAKFDFKAQTLKELPLQKGDIVYIYKQIDQNWYEGEHHGRVGIFPRTYIELLPPAEKAQPKKLTPVQVLEYGEAIAKFNFNGDTQVEMSFRKGERITLLRQVDENWYEGRIPGTSRQGIFPITYVDVIKRPLVKNPVDYMDLPFSSSPSRSATASPQFSSHSKLITPAPSSLPHSRRALSPEMHAVTSEWISLTVGVPGRRSLALTPPLPPLPEASIYNTDHLALSPRASPSLSLSLPHLSWSDRPTPRSVASPLALPSPHKTYSLAPTSQASLHMNGDGGVHTPSSGIHQDSFLQLPLGSSDSVISQLSDAFSSQSKRQPWREESGQYERKAERGAGERGPGGPKISKKSCLKPSDVVRCLSTEQRLSDLNTPEESRPGKPLGSAFPGSEAEQTERHRGGEQAGRKAARRGGSQQPQAQQRRVTPDRSQTSQDLFSYQALYSYIPQNDDELELRDGDIVDVMEKCDDGWFVGTSRRTKQFGTFPGNYVKPLYL
- binding: binds
